Experimental findings from PMC8387526 (EJNMMI Radiopharmacy and Chemistry, 2021) are described below.

Series [1] in a line: general procedure: Fmoc solid-phase peptide synthesis; 2-CT resin; TBTU, HOBt or HOAt, DIPEA. The conditions noted are these: whole synthesis, TFA salt.
Series [2] is described as follows: general procedure: Fmoc solid-phase peptide synthesis; Rink amide ChemMatrix (0.50 mmol/g); 2-CT resin for protected fragments; TBTU, HOBt or HOAt, DIPEA. The conditions noted are these: for isolated mass / isolated yield: 2 TFA.
Series [3] can be described thus: general procedure: Fmoc solid-phase peptide synthesis; Rink amide ChemMatrix; TBTU, HOBt or HOAt, DIPEA. The conditions noted are these: whole synthesis.
A short description of series [4]: peptide synthesis. Particulars: coupling step, referred to 18, 2TFA.
[5] abbreviates: whole synthesis, scale 37.5 µmol.
Where [6] appears, read: whole synthesis, scale 25.5 µmol.
Where [7] appears, read: whole synthesis, scale 0.13 mmol.
[8] abbreviates: whole synthesis, scale 0.13 mmol, run 1.
The mark [9] stands for this setting: whole synthesis, scale 0.30 mmol.

For part of these data: Strings that start with PEPTIDE1 are HELM notation: dots part the residues, brackets hold end groups and non-standard residues.

Turning to “Boc-L-His(Boc)-Aib-L-Glu(OtBu)-Gly-L-Thr(tBu)-L-(α-Me)Phe(2-F)-L-Thr(tBu)-L-Ser(tBu)-L-Asp(OtBu)-OH”, the crude mass in series [1] (scale 1.73 mmol) worked out at 2720 mg.
For “Fmoc-L-His(Trt)-Aib-L-Glu(OtBu)-Gly-L-Thr(tBu)-L-(α-Me)Phe(2-F)-L-Thr(tBu)-L-Ser(tBu)-L-Asp(OtBu)-OH”, in series [1] (scale 0.21 mmol), the crude mass came out at 162 mg.
For the substance “Fmoc-L-His(Trt)-Aib-L-Glu(OtBu)-Gly-L-Thr(tBu)-L-(α-Me)Phe-L-Thr(tBu)-L-Ser(tBu)-L-Asp(OtBu)-OH”, the crude mass in series [1] (scale 0.31 mmol) is listed as 545 mg.
In series [2] (setting [5]), “H-L-His-Aib-L-Glu-Gly-L-Thr-L-(α-Me)Phe(2-F)-L-Thr-L-Ser-L-Asp-L-Dap(SiFA)-L-homoPhe-NH2” returned an isolated mass of 5.40 mg and an isolated yield of 8.24%.
Turning to “H-L-His-Aib-L-Glu-Gly-L-Thr-L-(α-Me)Phe(2-F)-L-Thr-L-Ser-L-Asp-L-Val-L-Dap(SiFA)-NH2”, in series [2] (setting [6]), the isolated mass was 8.40 mg and the isolated yield stood at 21.7%.
With “H-L-His-Aib-L-Glu-Gly-L-Thr-L-(α-Me)Phe(2-F)-L-Thr-L-Ser-L-Asp-L-Val-L-Ser-L-Ser-L-Dap(SiFA)- L-Leu-L-Glu-NH2”, in series [3] (scale 0.13 mmol, 2 TFA), the isolated mass was 22.2 mg and the isolated yield came to 8.12%.
In the same order, the values of “H-L-His-Aib-L-Glu-Gly-L-Thr-L-(α-Me)Phe(2-F)-L-Thr-L-Ser-L-Asp-L-Val-L-homoPhe-L-Ser-L-Dap(SiFA)-L-Leu-L-Glu-NH2” are 17.2 mg and 6.08%.
On to “H-L-His-Aib-L-Glu-Gly-L-Thr-L-(α-Me)Phe(2-F)-L-Thr-L-Ser-L-Asp-NH2”, for which the step yield in series [2] (late stage modification step, TFA salt) is listed as 4.82%.
Take “H-L-His-Aib-L-Glu-Gly-L-Thr-L-(α-Me)Phe(2-F)-L-Thr-L-Ser-L-Asp-O2Oc-L/D-Dap(SiFA)-L-Leu-L-Glu-NH2 (12/13)”: the difficulty met entry in series [2] (whole synthesis, TFA salt) is recorded as “Racemization occurred during the coupling of Fmoc-L-Dap(Dde)-OH”. In series [2] (setting [7]), the isolated mass came out at 2.38 mg and the isolated yield was found to be 3.62%.
Turning to “H-L-His-Aib-L-Glu-Gly-L-Thr-L-(α-Me)Phe(2-F)-L-Thr-L-Ser-L-Asp-O2Oc-L/D-Dap(SiFA)-L-Leu-L-Glu-NH2 (12/13) [12]”, the difficulty met entry in series [2] (whole synthesis, TFA salt) is “Racemization occurred during the coupling of Fmoc-L-Dap(Dde)-OH”. In series [2] (setting [8]), this substance came in with an isolated mass of 1.41 mg and an isolated yield of 2.14%.
Regarding “H-L-His-Aib-L-Glu-Gly-L-Thr-L-(α-Me)Phe-L-Thr-L-Ser-L-Asp-L-Dap(SiFA)-L-homoPhe-NH2”, in series [2] (setting [5]), the isolated mass was 2.70 mg and the isolated yield turned out to be 4.16%.
For “H-L-His-Aib-L-Glu-Gly-L-Thr-L-(α-Me)Phe-L-Thr-L-Ser-L-Asp-L-Phe(4-I)-L-homoPhe-NH2”, in series [2] (setting [9]), the isolated mass is on record as 4.47 mg and the isolated yield is on record as 0.90%.
On to “PEPTIDE1{H.[Aib].E.G.T.[aMePhe2F].T.S.D.[BIP2Et4OMe].[homoPhe].[am]}$$$$V2.0”, for which, in series [4], the step yield is given as 16.1% referred to 18%. Also, in series [2] (coupling step, RP-HPLC, TFA salt), the “final HPLC purity” value amounted to 95%. The outcome in series [2] (whole synthesis, TFA salt) was 1 could not be obtained by a linear reaction protocol.
In series [3] (scale 93.3 µmol, 3 TFA), “PEPTIDE1{[ac].G.Q.A.A.K.E.F.I.A.W.L.V.K.G.R.[am]}$$$$V2.0” showed an isolated mass of 10.2 mg and an isolated yield of 5.32%.
